This passage reports binding results from article PMC3376741.

These are yes or no findings as the source states them, for the method shown. In cells and extracts the contact can be indirect.

This experiment has as its target GST::Borealin fragment of the central region that also contained the dimerization domain (human). The experiment can be described thus: pull-down; GST-tagged protein purified from bacteria on glutathione sepharose beads; partner translated in vitro and [35S] methionine-labelled; NET-N+ buffer (50 mM Tris-HCl pH 7.4, 150 mM NaCl, 5 mM EDTA, 0.5% NP-40), in ice 30 min; five washes; exposed to X-ray film; only the target purified.

B1: CHMP4C translated and radio-labelled in vitro (protein, UniProt Q96CF2 1-233)
chain: MSKLGKFFKGGGSSKSRAAPSPQEALVRLRETEEMLGKKQEYLENRIQREIALAKKHGTQNKRAALQALKRKKRFEKQLTQIDGTLSTIEFQREALENSHTNTEVLRNMGFAAKAMKSVHENMDLNKIDDLMQEITEQQDIAQEISEAFSQRVGFGDDFDEDELMAELEELEQEELNKKMTNIRLPNVPSSSLPAQPNRKPGMSSTARRSRAASSQRAEEEDDDIKQLAAWAT
modifications: [35S] methionine-labelled
Turning to B1, the binding result was “no binding”.
